Assay results taken from publication PMC10130768.

B1: SMC1A (protein, UniProt Q14683 1-1233)
chain: MGFLKLIEIENFKSYKGRQIIGPFQRFTAIIGPNGSGKSNLMDAISFVLGEKTSNLRVKTLRDLIHGAPVGKPAANRAFVSMVYSEEGAEDRTFARVIVGGSSEYKINNKVVQLHEYSEELEKLGILIKARNFLVFQGAVESIAMKNPKERTALFEEISRSGELAQEYDKRKKEMVKAEEDTQFNYHRKKNIAAERKEAKQEKEEADRYQRLKDEVVRAQVQLQLFKLYHNEVEIEKLNKELASKNKEIEKDKKRMDKVEDELKEKKKELGKMMREQQQIEKEIKEKDSELNQKRPQYIKAKENTSHKIKKLEAAKKSLQNAQKHYKKRKGDMDELEKEMLSVEKARQEFEERMEEESQSQGRDLTLEENQVKKYHRLKEEASKRAATLAQELEKFNRDQKADQDRLDLEERKKVETEAKIKQKLREIEENQKRIEKLEEYITTSKQSLEEQKKLEGELTEEVEMAKRRIDEINKELNQVMEQLGDARIDRQESSRQQRKAEIMESIKRLYPGSVYGRLIDLCQPTQKKYQIAVTKVLGKNMDAIIVDSEKTGRDCIQYIKEQRGEPETFLPLDYLEVKPTDEKLRELKGAKLVIDVIRYEPPHIKKALQYACGNALVCDNVEDARRIAFGGHQRHKTVALDGTLFQKSGVISGGASDLKAKARRWDEKAVDKLKEKKERLTEELKEQMKAKRKEAELRQVQSQAHGLQMRLKYSQSDLEQTKTRHLALNLQEKSKLESELANFGPRINDIKRIIQSREREMKDLKEKMNQVEDEVFEEFCREIGVRNIREFEEEKVKRQNEIAKKRLEFENQKTRLGIQLDFEKNQLKEDQDKVHMWEQTVKKDENEIEKLKKEEQRHMKIIDETMAQLQDLKNQHLAKKSEVNDKNHEMEEIRKKLGGANKEMTHLQKEVTAIETKLEQKRSDRHNLLQACKMQDIKLPLSKGTMDDISQEEGSSQGEDSVSGSQRISSIYAREALIEIDYGDLCEDLKDAQAEEEIKQEMNTLQQKLNEQQSVLQRIAAPNMKAMEKLESVRDKFQETSDEFEAARKRAKKAKQAFEQIKKERFDRFNACFESVATNIDEIYKALSRNSSAQAFLGPENPEEPYLDGINYNCVAPGKRFRPMDNLSGGEKTVAALALLFAIHSYKPAPFFVLDEIDAALDNTNIGKVANYIKEQSTCNFQAIVISLKEEFYTKAESLIGVYPEQGDCVISKVLTFDLTKYPDANPNPNEQ
B2: NUP107 (protein, UniProt P57740 1-925)
chain: MDRSGFGEISSPVIREAEVTRTARKQSAQKRVLLQASQDENFGNTTPRNQVIPRTPSSFRQPFTPTSRSLLRQPDISCILGTGGKSPRLTQSSGFFGNLSMVTNLDDSNWAAAFSSQRSGLFTNTEPHSITEDVTISAVMLREDDPGEAASMSMFSDFLQSFLKHSSSTVFDLVEEYENICGSQVNILSKIVSRATPGLQKFSKTASMLWLLQQEMVTWRLLASLYRDRIQSALEEESVFAVTAVNASEKTVVEALFQRDSLVRQSQLVVDWLESIAKDEIGEFSDNIEFYAKSVYWENTLHTLKQRQLTSYVGSVRPLVTELDPDAPIRQKMPLDDLDREDEVRLLKYLFTLIRAGMTEEAQRLCKRCGQAWRAATLEGWKLYHDPNVNGGTELEPVEGNPYRRIWKISCWRMAEDELFNRYERAIYAALSGNLKQLLPVCDTWEDTVWAYFRVMVDSLVEQEIQTSVATLDETEELPREYLGANWTLEKVFEELQATDKKRVLEENQEHYHIVQKFLILGDIDGLMDEFSKWLSKSRNNLPGHLLRFMTHLILFFRTLGLQTKEEVSIEVLKTYIQLLIREKHTNLIAFYTCHLPQDLAVAQYALFLESVTEFEQRHHCLELAKEADLDVATITKTVVENIRKKDNGEFSHHDLAPALDTGTTEEDRLKIDVIDWLVFDPAQRAEALKQGNAIMRKFLASKKHEAAKEVFVKIPQDSIAEIYNQCEEQGMESPLPAEDDNAIREHLCIRAYLEAHETFNEWFKHMNSVPQKPALIPQPTFTEKVAHEHKEKKYEMDFGIWKGHLDALTADVKEKMYNVLLFVDGGWMVDVREDAKEDHERTHQMVLLRKLCLPMLCFLLHTILHSTGQYQECLQLADMVSSERHKLYLVFSKEELRKLLQKLRESSLMLLDQGLDPLGYEIQL

Target: HA-FLAG-tagged mouse WT BAZ2A (mouse)
Assay: co-IP; anti-HA magnetic beads IP of F/H-BAZ2A (WT, WY/GA, ΔTAM) from MNase-digested nuclear extracts of transfected PC3 cells; overnight at 4°C; washes with 200 mM NaCl, 0.02% NP-40; Western blot

Row | Binder | binding
1 | B1 | binds
2 | B2 | binds

These are yes or no findings as the source states them, for the method shown. Binding seen in cells or lysates may run through a third protein. A result given as binding can be weak or reduced; the word gives no strength.
